# Data as given in PubChem BioAssay AID504784 (Drosophila RNAi Screening Center, 2011)
# Aim: 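Search for regulators of lipid droplet storage in oleate-fed fly cells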 (primary screen)
# Cell system: Drosophila Kc167 embryonic cells
# Knock-down reagent: long dsRNA against Drosophila genes, about 250 ng dsRNA per well
# Time to read-out: 4 days
# Challenge: cells fed 400 µM oleic acid bound to BSA
# Detection: 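Microscope images give a droplet-to-nucleus area ratio, taken as log and converted to a screen-wide B-score; higher values mean greater lipid storage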
# Reading the numbers: droplet/nuclear area B-score: higher = more stored lipid (overstorage)
# In all, the deposit lists about 17,000 reagents; below is a random part of those that have a named target and a result. 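Each column is one replicate's B-score; the combined score over replicates was not deposited, so single values may mislead.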 Reagents against one gene are numbered here. A plus sign joins genes that one reagent is predicted to hit.
predicted target,reagent no.,"droplet/nuclear area B-score, replicate 1","droplet/nuclear area B-score, replicate 2","droplet/nuclear area B-score, replicate 3"
CG15097,1,-0.617,0.0682,
CG14968,1,1.21,0.398,
mael,1,-0.965,0.0187,-0.667
CG30383,1,-0.121,0.367,
Hers + amn,1,0.164,0.0752,
CG11069,1,-0.889,0.721,
l(1)sc,1,0.831,-0.135,
Karybeta3,1,-2.62,-0.115,0
dsd,1,-0.781,1.81,
dsd,2,-1.84,,
CG13436,1,0.466,-0.463,
CG16734,1,-0.313,0.717,
CG7142,1,0.644,0.986,
nAChRbeta1,1,0.506,0.24,
nAChRbeta1,2,0.39,0.49,
Rpn10,1,0.635,-0.0127,
CG13794,1,0.0707,1.62,
CG42812 + CG42811,1,-1.46,,
CG42812 + CG42811,2,-0.0125,-1.34,
SNCF,1,1.46,-0.0283,
ND-15,1,1.78,4.66,
Zif,1,1.4,0.0895,
CG31792,1,0.00229,0.775,
AGO1,1,2.63,-3.28,
Tsen34 + Trl,1,0.97,-0.264,
CG4991,1,-1.13,-0.0552,
CG5860,1,-0.151,0.608,
CG33768,1,1.31,1.16,
Vha16-2,1,0.327,-0.534,
DIP-gamma,1,-0.197,,
CG32182,1,-2.23,-1.15,
cwo,1,3.08,3.14,
png,1,1.38,0.537,
CG32834,1,-0.0753,-0.19,
Dnai2,1,-0.469,-0.331,
CG12517,1,-0.815,-1.75,
CG10486,1,1.32,1.67,
Sac1,1,-0.985,0.1,
Gr64b,1,0.076,2.38,
CG11317,1,0.13,2.71,
Rchy1,1,2.58,-0.673,
Rchy1,2,-2.16,-2.08,
Got2,1,-0.1,-0.746,
TotM,1,-0.344,-0.5,
He + NimB5,1,-0.96,-0.475,
CG5773,1,0.899,0.156,
stil,1,-2.04,0.395,
Nup93-2,1,0.694,-0.442,
Coq4 + Gorab + frc,1,0.149,0.137,
Faa,1,-1.22,-0.842,
CG30265,1,-0.0532,1.92,
CG15818,1,-0.616,0.111,
CG32750,1,1.28,0.912,
CG15517,1,-1.07,-2.59,
SmE,1,-0.231,1.75,
ND-75,1,5.44,3.95,
dj,1,-1.59,0.673,
Cpr100A,1,-0.246,0.292,
rdgC,1,-1.38,-0.114,
Vha16-5,1,-0.266,-1.33,
CG3097,1,-0.88,0.715,
Cdc37,1,0.736,1.01,
CG14434,1,-0.452,0.0948,
CR40450 + CG32767,1,2.3,0.0746,1.67
CG4617,1,1.12,-0.904,0.0562
CG5357 (retired record),1,-0.121,0.0811,
CG4984 + CG4975,1,-0.364,0.338,
CG4984 + CG4975,2,-0.966,2.14,
Jon66Ci,1,-0.554,-0.132,
Cpn,1,8.2,0.385,
CG17207,1,-0.71,1.27,
E(bx),1,0.319,0.128,
E(bx),2,-1.53,0.445,
E(bx),3,1.06,1.5,
RpL34b,1,0.654,1.12,
CG1273,1,0.517,5.04,
CG15258,1,-1.34,1.97,
eIF3k,1,1.01,-0.0479,
Vps15,1,-0.165,-1.41,
CG14762,1,0.459,0.061,
CG14762,2,0.809,3.44,
CG10104,1,-0.691,-1.65,
CG6674,1,1.06,-1.78,
tutl,1,-0.523,-0.0489,
tutl,2,0.0166,-0.307,
tutl,3,0.0155,-0.709,
l(2)34Fd,1,-0.662,0.658,
CG30047,1,1.45,-0.611,
dpr16,1,-0.000326,-0.0574,
dpr16,2,1.6,1.26,
Mon1,1,0.376,-1.83,
CG12011,1,-0.816,-0.00621,
Rpn9,1,0.619,-0.309,
CG10565,1,0.107,0.47,0.814
CG14177 (retired record),1,-0.00201,0.17,-0.606
CG33255 (retired record) + hpRNA:CR32205,1,-1.05,-0.502,
CG33255 (retired record) + hpRNA:CR32205,2,-0.519,0.624,
CG13926,1,2.21,0.946,
lilli,1,0.747,0.00891,0.514
CG3823,1,-0.687,-0.0411,
CG9135,1,0.562,-1.05,
CG5098,1,1.84,-1.02,
Idgf1,1,0.0808,-0.523,
CG5646,1,0.0138,0.688,
ohgt,1,2.06,-0.0118,
